Measured values as given in patent US10227357B2, “Compounds and methods for kinase modulation, and indications therefor” (Plexxikon Inc., priority 2012, dated 2019).
Some results were stated once for a whole list of compounds, not compound by compound.

Protein sequences, listed by entry. Tags and fused reporters are not part of them.
UniProt P10721, whole entry D816V: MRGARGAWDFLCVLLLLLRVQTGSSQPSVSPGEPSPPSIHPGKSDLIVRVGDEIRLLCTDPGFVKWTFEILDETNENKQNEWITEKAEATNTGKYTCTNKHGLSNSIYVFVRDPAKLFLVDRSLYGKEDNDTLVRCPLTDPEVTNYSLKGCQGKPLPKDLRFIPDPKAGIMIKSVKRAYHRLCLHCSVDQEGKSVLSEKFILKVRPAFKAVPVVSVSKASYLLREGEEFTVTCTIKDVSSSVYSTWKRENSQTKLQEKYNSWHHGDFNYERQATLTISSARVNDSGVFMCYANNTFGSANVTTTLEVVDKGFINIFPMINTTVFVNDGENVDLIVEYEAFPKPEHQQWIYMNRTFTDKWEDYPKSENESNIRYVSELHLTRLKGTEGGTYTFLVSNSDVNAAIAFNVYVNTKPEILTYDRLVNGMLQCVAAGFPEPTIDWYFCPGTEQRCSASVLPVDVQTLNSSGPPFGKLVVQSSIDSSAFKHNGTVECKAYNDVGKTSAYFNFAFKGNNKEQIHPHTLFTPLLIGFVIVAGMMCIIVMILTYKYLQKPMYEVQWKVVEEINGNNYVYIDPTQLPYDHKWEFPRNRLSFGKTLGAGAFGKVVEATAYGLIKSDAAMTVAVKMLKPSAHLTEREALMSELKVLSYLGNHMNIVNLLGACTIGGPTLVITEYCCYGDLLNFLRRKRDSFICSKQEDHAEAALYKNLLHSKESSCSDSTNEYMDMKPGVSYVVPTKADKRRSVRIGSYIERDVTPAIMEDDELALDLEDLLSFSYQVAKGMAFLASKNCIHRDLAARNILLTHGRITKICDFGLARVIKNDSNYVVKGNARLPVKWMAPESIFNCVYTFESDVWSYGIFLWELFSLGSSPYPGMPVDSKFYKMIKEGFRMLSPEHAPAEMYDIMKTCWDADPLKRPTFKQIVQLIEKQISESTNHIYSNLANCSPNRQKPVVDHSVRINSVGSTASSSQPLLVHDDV

target: BaF3-FL KIT D816V cells (Homo sapiens, UniProt P10721, D816V, cells depend on it, form not given); assay: Cell-based assay of c-Kit mutant kinase activity, BaF3-FL KIT D816V cell proliferation (ATPlite); details: in at least one of the c-kit cell assays described in Example 28 (BaF3-FL KIT D816V or BaF3-FL KIT V560G/D816V); read-out: IC50 (the source's name)

SMILES	GI50
Cc1ncc(-c2cc3c(N4CCN(C(=O)Nc5ccc(OC(F)(F)F)cc5)CC4)ncnc3[nH]2)s1 [P-0080, 4-[6-(2-methylthiazol-5-yl)-7H-pyrrolo[2,3-d]pyrimidin-4-yl]-N-[4-(trifluoromethoxy)phenyl]piperazine-1-carboxamide]	< 10 µM
CNC(=O)c1cccc(-c2cc3c(N4CCN(C(=O)NCc5ccc(F)cc5)CC4)ncnc3[nH]2)c1 [P-0081, N-[(4-fluorophenyl)rnethyl]-4-[6-[3-(methylcarbamoyl)phenyl]-7H-pyrrolo[2,3-d]pyrimidin-4-yl]piperazine-1-carboxamide]	< 10 µM
CC(=O)Nc1cccc(-c2cc3c(N4CCN(C(=O)NCc5ccc(F)cc5)CC4)ncnc3[nH]2)c1 [P-0082, 4-[6-(3-acetamidophenyl)-7H-pyrrolo[2,3-d]pyrimidin-4-yl]-N-[(4-fluorophenyl)methyl]piperazine-1-carboxamide]	< 10 µM
NS(=O)(=O)c1cccc(-c2cc3c(N4CCN(C(=O)Nc5ccc(OC(F)(F)F)cc5)CC4)ncnc3[nH]2)c1 [P-0083, 4-[6-(3-sulfamoylphenyl)-7H-pyrrolo[2,3-d]pyrimidin-4-yl]-N-[4-(trifluoromethoxy)phenyl]piperazine-1-carboxamide]	< 10 µM
CC(=O)Nc1ccc(-c2cc3c(N4CCN(C(=O)Nc5ccc(OC(F)(F)F)cc5)CC4)ncnc3[nH]2)cn1 [P-0084, 4-[6-(6-acetamido-3-pyridyl)-7H-pyrrolo[2,3-d]pyrimidin-4-yl]-N-[4-(trifluoromethoxy)phenyl]piperazine-1-carboxamide]	< 10 µM
CN(C)C(=O)c1cccc(-c2cc3c(N4CCN(C(=O)Nc5ccc(OC(F)(F)F)cc5)CC4)ncnc3[nH]2)c1 [P-0085, 4-[6-[3-(dimethylcarbamoyl)phenyl]-7H-pyrrolo[2,3-d]pyrimidin-4-yl]-N-[4-(trifluoromethoxy)phenyl]piperazine-1-carboxamide]	< 10 µM
N#Cc1ccc(-c2cc3c(N4CCN(C(=O)Nc5ccc(OC(F)(F)F)cc5)CC4)ncnc3[nH]2)cc1 [P-0086, 4-[6-(4-cyanophenyl)-7H-pyrrolo[2,3-d]pyrimidin-4-yl]-N-[4-(trifluoromethoxy)phenyl]piperazine-1-carboxamide]	< 10 µM
COc1ncc(CNC(=O)N2CCN(c3ncnc4[nH]c(-c5ccc(F)cc5)cc34)CC2)cc1F [P-0087, N-[(5-fluoro-6-methoxy-3-pyridyl)methyl]-4-[6-(4-fluorophenyl)-7H-pyrrolo[2,3-d]pyrimidin-4-yl]piperazine-1-carboxamide]	< 10 µM
CCNC(=O)N1CCN(c2ncnc3[nH]c(-c4ccc(F)cc4)cc23)CC1 [P-0088, N-ethyl-4-[6-(4-fluorophenyl)-7H-pyrrolo[2,3-d]pyrimidin-4-yl]piperazine-1-carboxamide]	< 10 µM
C#Cc1cc2c(N3CCN(C(=O)Nc4ccc(OCC)cc4)CC3)ncnc2[nH]1 [P-0089, N-(4-ethoxyphenyl)-4-(6-ethynyl-7H-pyrrolo[2,3-d]pyrimidin-4-yl)piperazine-1-carboxamide]	< 10 µM
O=C(NCc1ccc(F)cc1)N1CCN(c2ncnc3[nH]c(-c4ccc(F)cc4)cc23)CC1 [P-0090, N-[(4-fluorophenyl)methyl]-4-[6-(4-fluorophenyl)-7H-pyrrolo[2,3-d]pyrimidin-4-yl]piperazine-1-carboxamide]	< 10 µM
Cn1cc(-c2cc3c(N4CCN(C(=O)Nc5ccc(OC(F)F)cc5)CC4)ncnc3[nH]2)cn1 [P-0091, N-[4-(difluoromethoxy)phenyl]-4-[6-(1-methylpyrazol-4-yl)-7H-pyrrolo[2,3-d]pyrimidin-4-yl]piperazine-1-carboxamide]	< 10 µM
Cn1cc(-c2cc3c(N4CCN(C(=O)Nc5ccc(OC(F)(F)F)cc5)CC4)ncnc3[nH]2)cn1 [P-0092, 4-[6-(1-methylpyrazol-4-yl)-7H-pyrrolo[2,3-d]pyrimidin-4-yl]-N-[4-(trifluoromethoxy)phenyl]piperazine-1-carboxamide]	< 10 µM
COc1cccc([C@H](C)NC(=O)N2CCN(c3ncnc4[nH]c(-c5cnn(C)c5)cc34)CC2)c1 [P-0093, N-[(1S)-1-(3-methoxyphenyl)ethyl]-4-[6-(1-methylpyrazol-4-yl)-7H-pyrrolo[2,3-d]pyrimidin-4-yl]piperazine-1-carboxamide]	< 10 µM
C[C@H](NC(=O)N1CCN(c2ncnc3[nH]c(-c4cnn(C)c4)cc23)CC1)c1ccc(F)cc1 [P-0094, N-[(1S)-1-(4-fluorophenyl)ethyl]-4-[6-(1-methylpyrazol-4-yl)-7H-pyrrolo[2,3-d]pyrimidin-4-yl]piperazine-1-carboxamide]	< 10 µM
C[C@H](NC(=O)N1CCN(c2ncnc3[nH]c(-c4cnn(C)c4)cc23)CC1)c1ccc(Cl)cc1 [P-0095, N-[(1S)-1-(4-chlorophenyl)ethyl]-4-[6-(1-methylpyrazol-4-yl)-7H-pyrrolo[2,3-d]pyrimidin-4-yl]piperazine-1-carboxamide]	< 10 µM
Cn1cc(-c2cc3c(N4CCN(C(=O)Nc5ccc(F)cc5)CC4)ncnc3[nH]2)cn1 [P-0096, N-(4-fluorophenyl)-4-[6-(1-methylpyrazol-4-yl)-7H-pyrrolo[2,3-d]pyrimidin-4-yl]piperazine-1-carboxamide]	< 10 µM

SMILES	GI50
Cn1cc(-c2cc3c(N4CCN(C(=O)NCc5ccc(Cl)cc5)CC4)ncnc3[nH]2)cn1 [P-0097, N-[(4-chlorophenyl)methyl]-4-[6-(1-methylpyrazol-4-yl)-7H-pyrrolo[2,3-d]pyrimidin-4-yl]piperazine-1-carboxamide]	< 10 µM
NS(=O)(=O)c1ccc(-c2cc3c(N4CCN(C(=O)NCc5ccc(F)cc5)CC4)ncnc3[nH]2)cc1 [P-0099, N-[(4-fluorophenyl)methyl]-4-[6-(4-sulfamoylphenyl)-7H-pyrrolo[2,3-d]pyrimidin-4-yl]piperazine-1-carboxamide]	< 10 µM
NS(=O)(=O)c1ccc(-c2cc3c(N4CCN(C(=O)Nc5ccc(OC(F)(F)F)cc5)CC4)ncnc3[nH]2)cc1 [P-0100, 4-[6-(4-sulfamoylphenyl)-7H-pyrrolo[2,3-d]pyrimidin-4-yl]-N-[4-(trifluoromethoxy)phenyl]piperazine-1-carboxamide]	< 10 µM
O=C(NCc1ccc(F)cc1)N1CCN(c2ncnc3[nH]c(-c4ccncc4)cc23)CC1 [P-0101, N-[(4-fluorophenyl)methyl]-4-[6-(4-pyridyl)-7H-pyrrolo[2,3-d]pyrimidin-4-yl]piperazine-1-carboxamide]	< 10 µM
O=C(Nc1ccc(OC(F)(F)F)cc1)N1CCN(c2ncnc3[nH]c(-c4ccncc4)cc23)CC1 [P-0102, 4-[6-(4-pyridyl)-7H-pyrrolo[2,3-d]pyrimidin-4-yl]-N-[4-(trifluoromethoxy)phenyl]piperazine-1-carboxamide]	< 10 µM
Cc1ccc(-c2cc3c(N4CCN(C(=O)NCc5ccc(F)cc5)CC4)ncnc3[nH]2)cn1 [P-0103, N-[(4-fluorophenyl)methyl]-4-[6-(6-methyl-3-pyridyl)-7H-pyrrolo[2,3-d]pyrimidin-4-yl]piperazine-1-carboxamide]	< 10 µM
COc1ncc(-c2cc3c(N4CCN(C(=O)NCc5ccc(F)cc5)CC4)ncnc3[nH]2)cn1 [P-0106, N-[(4-fluorophenyl)methyl]-4-[6-(2-methoxypyrimidin-5-yl)-7H-pyrrolo[2,3-d]pyrimidin-4-yl]piperazine-1-carboxamide]	< 10 µM
CS(=O)(=O)Nc1cccc(-c2cc3c(N4CCN(C(=O)NCc5ccc(F)cc5)CC4)ncnc3[nH]2)c1 [P-0107, N-[(4-fluorophenyl)methyl]-4-[6-[3-(methanesulfonamido)phenyl]-7H-pyrrolo[2,3-d]pyrimidin-4-yl]piperazine-1-carboxamide]	< 10 µM
NC(=O)c1cccc(-c2cc3c(N4CCN(C(=O)NCc5ccc(F)cc5)CC4)ncnc3[nH]2)c1 [P-0108, 4-[6-(3-carbamoylphenyl)-7H-pyrrolo[2,3-d]pyrimidin-4-yl]-N-[(4-fluorophenyl)methyl]piperazine-1-carboxamide]	< 10 µM
N#Cc1ccc(-c2cc3c(N4CCN(C(=O)NCc5ccc(F)cc5)CC4)ncnc3[nH]2)cc1 [P-0109, 4-[6-(4-cyanophenyl)-7H-pyrrolo[2,3-d]pyrimidin-4-yl]-N-[(4-fluorophenyl)methyl]piperazine-1-carboxamide]	< 10 µM
N#Cc1cccc(-c2cc3c(N4CCN(C(=O)NCc5ccc(F)cc5)CC4)ncnc3[nH]2)c1 [P-0110, 4-[6-(3-cyanophenyl)-7H-pyrrolo[2,3-d]pyrimidin-4-yl]-N-[(4-fluorophenyl)methyl]piperazine-1-carboxamide]	< 10 µM
O=C(Nc1ccc(OC(F)(F)F)cc1)N1CCN(c2ncnc3[nH]c(-c4ccc(C5CC5)nc4)cc23)CC1 [P-0111, 4-[6-(6-cyclopropyl-3-pyridyl)-7H-pyrrolo[2,3-d]pyrimidin-4-yl]-N-[4-(trifluoromethoxy)phenyl]piperazine-1-carboxamide]	< 10 µM
O=C(Nc1ccc(OC(F)(F)F)cc1)N1CCN(c2ncnc3[nH]c(-c4cnc(C5CC5)nc4)cc23)CC1 [P-0112, 4-[6-(2-cyclopropylpyrimidin-5-yl)-7H-pyrrolo[2,3-d]pyrimidin-4-yl]-N-[4-(trifluoromethoxy)phenyl]piperazine-1-carboxamide]	< 10 µM
N#CC1(c2ccc(-c3cc4c(N5CCN(C(=O)Nc6ccc(OC(F)(F)F)cc6)CC5)ncnc4[nH]3)cc2)CC1 [P-0113, 4-[6-[4-(1-cyanocyclopropyl)phenyl]-7H-pyrrolo[2,3-d]pyrimidin-4-yl]-N-[4-(trifluoromethoxy)phenyl]piperazine-1-carboxamide]	< 10 µM
CN(C)c1ccc(-c2cc3c(N4CCN(C(=O)Nc5ccc(OC(F)(F)F)cc5)CC4)ncnc3[nH]2)cn1 [P-0114, 4-[6-[6-(dimethylamino)-3-pyridyl]-7H-pyrrolo[2,3-d]pyrimidin-4-yl]-N-[4-(trifluoromethoxy)phenyl]piperazine-1-carboxamide]	< 10 µM
CNC(=O)c1cccc(-c2cc3c(N4CCN(C(=O)Nc5ccc(OC(F)(F)F)cc5)CC4)ncnc3[nH]2)c1 [P-0116, 4-[6-[3-(methylcarbamoyl)phenyl]-7H-pyrrolo[2,3-d]pyrimidin-4-yl]-N-[4-(trifluoromethoxy)phenyl]piperazine-1-carboxamide]	< 10 µM
